Assay results from paper PMC13083928, “ALS mutations disrupt self-association between the ubiquilin STI1 hydrophobic groove and internal placeholder sequences” (The EMBO Journal, 2026).
These are yes or no findings as the source states them, for the method shown. In cells and extracts the contact can be indirect. Some binding calls cover weakened binding; strength is not graded here. Where a sequence is shown, tags or fusion partners need not be part of it.

Sequences of proteins named here, by UniProt entry; tags and fusion partners are left off. A change or cut given only in a name is not applied to a line headed by its entry.
UniProt Q9UHD9: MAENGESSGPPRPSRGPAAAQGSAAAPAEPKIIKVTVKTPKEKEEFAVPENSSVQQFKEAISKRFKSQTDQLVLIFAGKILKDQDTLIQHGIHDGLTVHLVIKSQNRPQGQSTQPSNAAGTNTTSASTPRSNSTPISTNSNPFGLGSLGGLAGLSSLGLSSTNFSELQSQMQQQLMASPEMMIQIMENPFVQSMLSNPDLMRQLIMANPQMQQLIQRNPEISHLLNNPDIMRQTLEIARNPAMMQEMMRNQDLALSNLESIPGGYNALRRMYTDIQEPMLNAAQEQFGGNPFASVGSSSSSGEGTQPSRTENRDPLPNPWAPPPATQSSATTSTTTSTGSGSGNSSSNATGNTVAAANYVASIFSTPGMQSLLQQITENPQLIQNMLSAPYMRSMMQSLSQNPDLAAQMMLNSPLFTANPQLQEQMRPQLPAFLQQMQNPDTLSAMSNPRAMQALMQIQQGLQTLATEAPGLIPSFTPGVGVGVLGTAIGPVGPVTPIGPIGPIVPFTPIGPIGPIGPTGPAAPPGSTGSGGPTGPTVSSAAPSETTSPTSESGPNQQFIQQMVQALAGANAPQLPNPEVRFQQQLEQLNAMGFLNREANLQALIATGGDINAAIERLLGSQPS

Target: T1, 3xFLAG-Omp25 (pUdOM1.0) (UniProt P57105)
T1 sequence: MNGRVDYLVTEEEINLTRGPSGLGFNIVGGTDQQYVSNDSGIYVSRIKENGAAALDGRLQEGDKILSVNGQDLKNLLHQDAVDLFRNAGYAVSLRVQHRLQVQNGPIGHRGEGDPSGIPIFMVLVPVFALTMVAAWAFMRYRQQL
Test: co-IP + cross-linking; HEK cells co-transfected with HA-tagged UBQLN2 variants and FLAG-tagged Omp25 (CMV promoter); 1 mM DSP for 30 min, lysis in 1% NP-40, anti-FLAG immunoprecipitation, elution with 3xFLAG peptide, western blot

binding: binds
Substance: 3xHA-UBQLN2 P189T (pUdOM1.0) (from UniProt Q9UHD9 1-624)
